# Laboratory results: PMC3905715 (Nature Communications, 2013)
# The chains behind the UniProt entries cited, without tags or fusion partners. Where a name states a change or a piece, a line headed by the entry shows the natural chain unless it says otherwise.
# UniProt A2ARI4: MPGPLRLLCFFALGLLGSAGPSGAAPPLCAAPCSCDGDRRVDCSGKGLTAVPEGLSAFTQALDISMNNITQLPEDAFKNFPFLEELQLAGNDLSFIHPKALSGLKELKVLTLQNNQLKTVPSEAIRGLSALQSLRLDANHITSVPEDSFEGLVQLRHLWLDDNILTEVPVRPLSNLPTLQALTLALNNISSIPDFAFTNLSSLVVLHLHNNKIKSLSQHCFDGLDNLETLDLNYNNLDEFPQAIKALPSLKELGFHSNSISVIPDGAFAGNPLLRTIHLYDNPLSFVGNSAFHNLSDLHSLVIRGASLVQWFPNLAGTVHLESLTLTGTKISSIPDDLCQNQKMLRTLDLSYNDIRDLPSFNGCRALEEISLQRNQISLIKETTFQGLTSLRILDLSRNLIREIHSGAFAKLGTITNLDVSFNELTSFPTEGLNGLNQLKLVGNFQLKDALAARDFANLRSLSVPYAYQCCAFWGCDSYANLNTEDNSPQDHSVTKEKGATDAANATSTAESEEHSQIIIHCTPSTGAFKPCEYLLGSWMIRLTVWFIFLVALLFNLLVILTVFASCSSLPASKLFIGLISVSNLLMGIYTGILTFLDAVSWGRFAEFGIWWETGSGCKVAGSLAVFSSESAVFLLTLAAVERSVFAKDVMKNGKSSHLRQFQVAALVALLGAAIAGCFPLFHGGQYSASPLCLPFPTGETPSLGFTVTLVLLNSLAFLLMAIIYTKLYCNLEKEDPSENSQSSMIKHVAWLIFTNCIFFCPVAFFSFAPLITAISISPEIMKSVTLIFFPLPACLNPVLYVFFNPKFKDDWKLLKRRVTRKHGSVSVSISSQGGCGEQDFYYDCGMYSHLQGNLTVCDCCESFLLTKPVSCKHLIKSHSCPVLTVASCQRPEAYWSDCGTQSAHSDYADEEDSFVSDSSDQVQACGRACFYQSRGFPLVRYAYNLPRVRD
# Results are given in words; binding and its absence hold for the method and conditions named. In cells and extracts the contact can be indirect. For part of these data: A result given as binding can be weak or reduced; the word gives no strength. For part of these data: Where a sequence is shown, tags or fusion partners need not be part of it.
# Columns and labels:
# [1] = molecular target: T1, Human RNF43 ECD-IgG (1–198) (human) (UniProt Q68DV7); assay: co-IP; conditioned media mixed at 4 °C overnight; RNF43 ECD-IgG captured on protein G-agarose, Myc-tagged Rspo1 derivatives detected by blot
# T1 sequence: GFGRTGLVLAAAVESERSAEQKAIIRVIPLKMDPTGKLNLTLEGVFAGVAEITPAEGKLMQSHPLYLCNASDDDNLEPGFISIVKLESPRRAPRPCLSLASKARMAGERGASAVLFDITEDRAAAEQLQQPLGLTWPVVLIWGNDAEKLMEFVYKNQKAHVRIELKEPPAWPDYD
# [2] = molecular target: Full-length human RSPO1-Myc (1–263) (human) (UniProt Q2MKA7); assay: co-IP; conditioned media mixed at 4 °C overnight; Myc-tagged Rspo1 derivatives precipitated with anti-Myc (9E10), HA-Lgr4 ECD detected by blot
# [3] = molecular target: human Rspo1 Fu1–Fu2-Myc (1–147) (human) (UniProt Q2MKA7); assay: as above
# [4] = molecular target: human Rspo1 TSR-Myc (1–20, 144–263) (human) (UniProt Q2MKA7); assay: as above
# [5] = molecular target: human Rspo1 deltaFurin1-Myc (del 39–94) (human) (UniProt Q2MKA7); assay: as above
# [6] = molecular target: T2, human Rspo1 deltaFurin2-Myc (del 97–142) (human) (UniProt Q2MKA7); assay: as above
# T2 sequence: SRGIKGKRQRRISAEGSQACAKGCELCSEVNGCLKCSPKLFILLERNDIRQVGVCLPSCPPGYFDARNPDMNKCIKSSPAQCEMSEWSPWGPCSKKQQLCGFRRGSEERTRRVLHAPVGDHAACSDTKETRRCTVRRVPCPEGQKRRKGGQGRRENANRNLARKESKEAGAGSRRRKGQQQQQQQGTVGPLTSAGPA
binding [1],binding [2],binding [3],binding [4],binding [5],binding [6],Substance
no binding,–,–,–,–,–,"human Rspo1 TSR-Myc (1–20, 144–263) (from UniProt Q2MKA7) (domain or fragment)"
–,binds,binds,no binding,binds,no binding,mouse HA-Lgr4 ECD (from UniProt A2ARI4) (domain or fragment)
